{"source": "paper PMC3037353", "binders": {"B1": {"name": "HA-tagged Foxp3 (protein, UniProt Q99JB6 1-417)", "chain": "MPNPRPAKPMAPSLALGPSPGVLPSWKTAPKGSELLGTRGSGGPFQGRDLRSGAHTSSSLNPLPPSQLQLPTVPLVMVAPSGARLGPSPHLQALLQDRPHFMHQLSTVDAHAQTPVLQVRPLDNPAMISLPPPSAATGVFSLKARPGLPPGINVASLEWVSREPALLCTFPRSGTPRKDSNLLAAPQGSYPLLANGVCKWPGCEKVFEEPEEFLKHCQADHLLDEKGKAQCLLQREVVQSLEQQLELEKEKLGAMQAHLAGKMALAKAPSVASMDKSSCCIVATSTQGSVLPAWSAPREAPDGGLFAVRRHLWGSHGNSSFPEFFHNMDYFKYHNMRPPFTYATLIRWAILEAPERQRTLNEIYHWFTRMFAYFRNHPATWKNAIRHNLSLHKCFVRVESEKGAVWTVDEFEFRKKR"}}, "target": "HBZ-myc-His (tagged spliced HTLV-1 bZIP factor) (HTLV-1)", "assay": "co-IP; 293FT cells transiently cotransfected, 24 h later PMA 50 ng/ml and ionomycin 1 ug/ml for 6 h; nuclear extracts (Nuclear Complex Co-IP Kit) prepared with or without ethidium bromide 10 ug/ml; IP with anti-myc (9E10) or anti-Flag (M2) overnight at 4 C, Protein G Sepharose; blots with anti-His, anti-Flag, anti-HA", "note": "These are yes or no findings as the source states them, for the method shown. In cells and extracts the contact can be indirect. Binding calls can cover weak binding; strength is not graded here. Where a sequence is shown, tags or fusion partners need not be part of it.", "data": [{"binder": "B1", "values": [{"measurement": "binding", "value": "binds"}]}]}
